Data: patent US9586969B2, “Microbiocidal heterobicyclic derivatives” (Syngenta Participations AG, priority 2014, dated 2017)
Some results were stated once for a whole list of compounds, not compound by compound.

What was measured:
Type in all cases: cell-based
[1] = system: Monographella nivalis (Microdochium nivale); assay: Monographella nivalis (Microdochium nivale) / liquid culture (Foot rot cereals); details: 200 ppm, 24° C., inhibition of growth determined photometrically 4-5 days after application, vs untreated control
[2] = system: Botryotinia fuckeliana (Botrytis cinerea); assay: Botryotinia fuckeliana (Botrytis cinerea) / liquid culture (Gray mould); details: 200 ppm, 24° C., inhibition of growth determined photometrically 3-4 days after application, vs untreated control
[3] = system: Glomerella lagenarium (Colletotrichum lagenarium); assay: Glomerella lagenarium (Colletotrichum lagenarium) / liquid culture (Anthracnose); details: 200 ppm, 24° C., inhibition of growth measured photometrically 3-4 days after application, vs untreated control

Measured: disease control

Br.CC1(C)N=C(c2cnn3cccc3c2)c2cccc(F)c2C1(C)C [E 46]
at least 80%: [1] | [2] | [3]

CC1(C)N=C(c2cnn3cccc3c2)c2cccc(F)c2C1(C)C.O=S(=O)(O)O [E 47]
at least 80%: [1] | [2] | [3]

CC1(C)N=C(c2cnn3cccc3c2)c2cccc(F)c2C1(C)C.CS(=O)(=O)O [E 48]
at least 80%: [1] | [2] | [3]

CC1(C)N=C(c2cnn3cccc3c2)c2cccc(F)c2C1(C)C.O=S(=O)(O)C(F)(F)F [E 50]
at least 80%: [1] | [2] | [3]
